From patent US6806240B1, “Conveyor lubricant, passivation of a thermoplastic container to stress cracking, and thermoplastics stress crack inhibitor” (Ecolab Inc., priority 2002, dated 2004) come the findings set out here.

A short description of the series: Lubricity test, glass-on stainless steel.

As to `CCCCCCCCCCCCCCCCCCCCCC(=O)O` [Behenic acid, behenic acid], the “Rel COF” value (drag force (sample)/drag force (reference)) is 1.000. The “Drag force (average)” value (samples 100% or as indicated, references 0.1% by weight in water) was 28.0 g.
